Among the data in EP1746106A2 are binding values, retold here.

By UniProt entry, the sequences of proteins in these tests, tags left out. Residues count along the entry.
UniProt Q9D777, residues 96-241: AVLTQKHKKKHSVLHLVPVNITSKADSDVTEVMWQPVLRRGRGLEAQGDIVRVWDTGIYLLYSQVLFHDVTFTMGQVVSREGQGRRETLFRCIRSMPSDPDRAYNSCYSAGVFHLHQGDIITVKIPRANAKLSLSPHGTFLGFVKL

Experiment [1] deals with FLAG-tagged soluble extracellular domain of murine APRIL (PS784, also called LT032) (murine) (UniProt Q9D777). In words: co-immunoprecipitation, Western blot (Figure 10C legend).
The target is the same in experiment [2]. The experiment in a line: co-immunoprecipitation with protein A-Sepharose, anti-FLAG M2 Western blot. (Immunoblotting shows a protein as a band on a membrane.)

No constants are given. Whether binding was seen depends on the method and setting. Binding seen in cells or lysates may run through a third protein. Some entries that bind do so weakly or less than the wild type. Where a sequence is shown, tags or fusion partners need not be part of it.

B1: human TACI(1-160)-Ig fusion protein (Fc fusion, not shown: a dimerising Fc or GST)
chain: MSGLGRSRRGGRSRVDQEERFPQGLWTGVAMRSCPEEQYWDPLLGTCMSCKTICNHQSQRTCAAFCRSLSCRKEQGKFYDHLLRDCISCASICGQHPKQCAYFCENKLRSPVNLPPELRRQRSGEVENNSDNSGRYQGLEHRGSEASPALPGLKLSADQV
B1: the binding entry in experiment [1] and in experiment [2] was “binds” each time.
